Data on two molecules can be found in publication PMC10043290.

Sequences of proteins named here, by UniProt entry; tags and fusion partners are left off.
UniProt O43670: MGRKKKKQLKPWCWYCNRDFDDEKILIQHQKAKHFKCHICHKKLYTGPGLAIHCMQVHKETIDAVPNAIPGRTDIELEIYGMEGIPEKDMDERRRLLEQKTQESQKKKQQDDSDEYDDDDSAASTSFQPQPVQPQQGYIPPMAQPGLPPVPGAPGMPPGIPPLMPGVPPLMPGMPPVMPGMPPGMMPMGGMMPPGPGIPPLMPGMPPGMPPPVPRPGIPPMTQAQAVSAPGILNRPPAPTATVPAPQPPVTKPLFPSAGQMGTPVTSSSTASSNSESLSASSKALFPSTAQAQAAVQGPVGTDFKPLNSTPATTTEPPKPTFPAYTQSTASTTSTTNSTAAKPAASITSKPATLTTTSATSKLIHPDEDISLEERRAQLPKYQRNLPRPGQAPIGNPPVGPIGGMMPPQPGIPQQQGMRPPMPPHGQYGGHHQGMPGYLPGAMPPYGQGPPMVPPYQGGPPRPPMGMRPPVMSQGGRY

Results are given in words; binding and its absence hold for the method and conditions named. In cells and extracts the contact can be indirect. Some binding calls cover weakened binding; strength is not graded here.

This test concerns the target ZNF207 (human (endogenous in HDFs)) (UniProt O43670). As to the kind of experiment: co-IP; nuclear extracts of HDFs, about 500 ug protein lysate in NP40 lysis buffer (50 mM Tris-HCl, 150 mM NaCl, 1 mM EDTA, 0.5% NP40); anti-ZNF207 or IgG isotype control on protein G magnetic beads, overnight at 4 °C; Western blot for ATF7IP, JUNB, ZNF207.

B1: JUNB (protein, UniProt P17275 1-347)
chain: MCTKMEQPFYHDDSYTATGYGRAPGGLSLHDYKLLKPSLAVNLADPYRSLKAPGARGPGPEGGGGGSYFSGQGSDTGASLKLASSELERLIVPNSNGVITTTPTPPGQYFYPRGGGSGGGAGGAGGGVTEEQEGFADGFVKALDDLHKMNHVTPPNVSLGATGGPPAGPGGVYAGPEPPPVYTNLSSYSPASASSGGAGAAVGTGSSYPTTTISYLPHAPPFAGGHPAQLGLGRGASTFKEEPQTVPEARSRDATPPVSPINMEDQERIKVERKRLRNRLAATKCRKRKLERIARLEDKVKTLKAENAGLSSTAGLLREQVAQLKQKVMTHVSNGCQLLLGVKGHAF
In the case of B1, the binding result is “binds”.

B2: ATF7IP (protein, UniProt Q6VMQ6 1-1270)
chain: MDSLEEPQKKVFKARKTMRVSDRQQLEAVYKVKEELLKTDVKLLNGNHENGDLDPTSPLENMDYIKDKEEVNGIEEICFDPEGSKAEWKETPCILSVNVKNKQDDDLNCEPLSPHNITPEPVSKLPAEPVSGDPAPGDLDAGDPASGVLASGDSTSGDPTSSEPSSSDAASGDATSGDAPSGDVSPGDATSGDATADDLSSGDPTSSDPIPGEPVPVEPISGDCAADDIASSEITSVDLASGAPASTDPASDDLASGDLSSSELASDDLATGELASDELTSESTFDRTFEPKSVPVCEPVPEIDNIEPSSNKDDDFLEKNGADEKLEQIQSKDSLDEKNKADNNIDANEETLETDDTTICSDRPPENEKKVEEDIITELALGEDAISSSMEIDQGEKNEDETSADLVETINENVIEDNKSENILENTDSMETDEIIPILEKLAPSEDELTCFSKTSLLPIDETNPDLEEKMESSFGSPSKQESSESLPKEAFLVLSDEEDISGEKDESEVISQNETCSPAEVESNEKDNKPEEEEQVIHEDDERPSEKNEFSRRKRSKSEDMDNVQSKRRRYMEEEYEAEFQVKITAKGDINQKLQKVIQWLLEEKLCALQCAVFDKTLAELKTRVEKIECNKRHKTVLTELQAKIARLTKRFEAAKEDLKKRHEHPPNPPVSPGKTVNDVNSNNNMSYRNAGTVRQMLESKRNVSESAPPSFQTPVNTVSSTNLVTPPAVVSSQPKLQTPVTSGSLTATSVLPAPNTATVVATTQVPSGNPQPTISLQPLPVILHVPVAVSSQPQLLQSHPGTLVTNQPSGNVEFISVQSPPTVSGLTKNPVSLPSLPNPTKPNNVPSVPSPSIQRNPTASAAPLGTTLAVQAVPTAHSIVQATRTSLPTVGPSGLYSPSTNRGPIQMKIPISAFSTSSAAEQNSNTTPRIENQTNKTIDASVSKKAADSTSQCGKATGSDSSGVIDLTMDDEESGASQDPKKLNHTPVSTMSSSQPVSRPLQPIQPAPPLQPSGVPTSGPSQTTIHLLPTAPTTVNVTHRPVTQVTTRLPVPRAPANHQVVYTTLPAPPAQAPLRGTVMQAPAVRQVNPQNSVTVRVPQTTTYVVNNGLTLGSTGPQLTVHHRPPQVHTEPPRPVHPAPLPEAPQPQRLPPEAASTSLPQKPHLKLARVQSQNGIVLSWSVLEVDRSCATVDSYHLYAYHEEPSATVPSQWKKIGEVKALPLPMACTLTQFVSGSKYYFAVRAKDIYGRFGPFCDPQSTDVISSTQSS
As for B2, the binding entry is recorded as “binds”.
